This is one part of the list. The main result of the screen is listed elsewhere. These columns were measured beside it and carry no call. The list favours compounds with an active or inconclusive main result. The note in brackets gives the kind of curve behind each potency; many fits are weak.

Experimental findings from PubChem BioAssay AID493014 (National Center for Advancing Translational Sciences (NCATS), 2011) are described below.

The test in a line: qHTS Assay to Find Inhibitors of Chronic Active B-Cell Receptor Signaling. The conditions noted are these: ABC-DLBCL IkBa-CBG/CBR reporter, luminescence ratio (green luciferase fused to IkBa over red control in TMD8 lymphoma cells), 4 h. Put shortly:
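Cell line TMD8 (human ABC DLBCL), stably expressing tet-inducible CBG68-IkBa fusion and CBR; IMDM/0.5% FBS; cpd up to 46 uM; dox induction, 4 h, 37C/5% CO2; dual luminescence; green/red ratio; MG132 control.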

[1] abbreviates: measured here: CBR red luminescence, cell number.
The mark [2] stands for this setting: measured here: IkBa-CBG green luminescence.

Take `CCC(C)NCCOCCOc1ccc(Cl)cc1Br` (stereo not drawn): under setting [1], the AC50 (commonly the midpoint of the concentration-response curve, whichever way the signal moves) was 20 µM [falling, single point].
Same read-out and setting: in the case of `COC(=O)c1ccc(C(=O)Nc2ccc3nc(-c4ccncc4)[nH]c3c2)cc1` it was 35.5 µM [falling, single point].
Same read-out and setting: for `CC(C)N1CCN(Cc2ccc3c(c2)Cc2ccccc2-3)CC1CCO` (stereo not drawn) the value was 22.4 µM [falling, single point]; for `COc1ccc(/C=N/NC(=O)c2ccc(O)cc2)cc1CN1CCCc2ccccc21`, 1.84 µM [falling, full curve].
Same read-out and setting: in the case of `O=C(/C=C/c1cccc(Cl)c1)N1CCC(Cc2ccccc2)CC1` it was 0.517 µM [rising, full curve, poor fit].
`CCOc1ccccc1-c1nc(-c2ccc(C)nc2OC)no1`: the half-maximal activity concentration (AC50) under setting [1] is 10 µM [rising, single point].
On to `O=C(COc1nsnc1N1CCOCC1)Nc1ccc(Cl)cc1`, for which, under setting [1], the AC50 is 5.62 µM [falling, full curve].
With `CCOC(=O)c1ccc(N2C(=O)CC(N(Cc3ccc4c(c3)OCO4)C(=O)Nc3ccccc3)C2=O)cc1` (stereo not drawn), the AC50 under setting [1] was 0.058 µM [falling, full curve, poor fit].
The same measure, in the same setting: for `COc1cc(-c2nnc(SCc3cc(=O)oc4cc(C)ccc34)o2)cc(OC)c1OC` the value was 2.24 µM [rising, full curve].
Regarding `O=C(Cc1ccc(-n2c(=O)c3ccccc3n(Cc3cccc([N+](=O)[O-])c3)c2=O)cc1)NCC1CCCO1` (stereo not drawn), the AC50 by setting is: under setting [1], 29.1 µM [rising, single point]; under setting [2], 29.1 µM [falling, partial curve, poor fit].
Consider `CN1/C(=C/C(=O)CSc2ccccc2C(=O)O)C(C)(C)c2ccccc21`, for which the concentration at half-maximal activity (AC50) under setting [1] was 35.5 µM [falling, single point].
On to `NCC12CC3CC(CC(O)(C3)C1)C2`, for which, under setting [1], the half-maximal activity concentration (AC50) was 1.3 µM [rising, partial curve, poor fit].
Same read-out and setting: for `Cc1ccc(S(=O)(=O)/N=C2/NC(=O)/C(=C/c3ccc(Br)o3)S2)cc1` the value was 29.1 µM [rising, single point]; for `NC1=NC[C@@H](Cc2ccc(O)cc2)N1CC1CCCCC1`, 31.6 µM [rising, single point]; for `CC(=O)c1ccc(NC(=S)NC(=O)Cc2ccc(Cl)cc2)cc1`, 6.31 µM [rising, single point].
The same measure, in the same setting: in the case of `Cc1ccn2cc(-c3cccc(NC(=O)c4ccccc4)c3)nc2c1` it was 0.82 µM [rising, full curve].
Turning to `CC(NC(=O)c1ccc(S(=O)(=O)NCc2ccco2)cc1)c1ccc(F)cc1` (stereo not drawn), the AC50 is, setting by setting: under setting [1], 4.61 µM [rising, partial curve, poor fit]; under setting [2], 20.6 µM [falling, partial curve, poor fit].
As to `COc1ccc(C(C)=O)cc1COc1cccnc1[N+](=O)[O-]`, the AC50 under setting [1] is 4.47 µM [falling, full curve, poor fit].
Still for that read-out and setting: in the case of `C/C(=N\NC(=O)c1ccccc1F)c1ccc(C#N)cc1` it was 14.1 µM [falling, partial curve, poor fit]; in that of `O=S(=O)(c1ccc(F)cc1)N1CC=C(c2ccccc2)CC1`, 0.501 µM [falling, partial curve, poor fit]; in that of `CN(C(=O)c1ccccc1OCc1ccc(F)cc1)c1c(N)n(Cc2ccccc2)c(=O)[nH]c1=O`, 3.26 µM [falling, full curve].
For the compound `Cc1ccccc1N(Cc1ccccc1F)S(C)(=O)=O`, the AC50 under setting [1] is 3.26 µM [rising, full curve, poor fit].
For the compound `COC(=O)c1nnn(-c2nonc2N)c1COc1ccc(C=O)cc1OC`, the concentration at half-maximal activity (AC50) under setting [1] was 17.8 µM [rising, single point] and the AC50 under setting [2] is 25.1 µM [falling, single point].
`COc1ccc(C(=S)N2CCOCC2)cc1OC(=O)c1ccc([N+](=O)[O-])cc1[N+](=O)[O-]`: the AC50 under setting [1] is 25.1 µM [falling, single point].
As for `Cc1ccc(C(=O)N(CC#N)CC#N)cc1C`, the AC50 under setting [1] was 0.562 µM [rising, full curve].
On the same count and under the same terms, for `CCOC(=O)N1CCN(C(=O)c2ccc(CS(=O)(=O)c3c(Cl)cccc3Cl)o2)CC1` the value was 5.8 µM [rising, full curve, poor fit]; for `O=C(NCc1cccnc1)c1ccc(NC(=O)c2ccco2)cc1`, 1.84 µM [rising, partial curve, poor fit].
Same read-out and setting: in the case of `CCCCOCCCNC(=O)c1ccccc1OCC` it was 0.082 µM [rising, full curve, poor fit]; in that of `CC1Oc2ccccc2C=C1/C=N/NC(=O)c1ccccc1O` (stereo not drawn), 3.66 µM [falling, partial curve].
As for `Cc1ccc(C#N)c(SCc2ccccc2[N+](=O)[O-])n1`, under setting [2], the AC50 was 9.2 µM [falling, partial curve].
Take `O=C(Nc1cccc2ccccc12)c1ccc(Br)o1`: the AC50 under setting [1] is 25.9 µM [falling, partial curve, poor fit].
On the same count and under the same terms, in the case of `Cc1ccc(C)c(N2C(=O)N(Cc3c(F)cccc3Cl)c3ccccc3S2(=O)=O)c1` it was 2.51 µM [falling, full curve, poor fit]; in that of `CC(=O)Nc1ccc(NC(=S)Nc2ccccc2)cc1`, 5.17 µM [rising, partial curve, poor fit]; in that of `O=C(COC(=O)c1ccccc1NCCO)NCC1CCCCC1`, 16.4 µM [falling, single point].
Still for that read-out and setting: for `Cc1ccc(C(=O)NCCc2c[nH]c3ccccc23)c(C)c1` the value was 25.1 µM [falling, partial curve, poor fit]; for `CSc1ccccc1C(=O)OCC(=O)Nc1cccnc1Cl`, 29.1 µM [falling, single point].
Consider `CN(CC(=O)Nc1cccc(S(=O)(=O)N2CCCC2)c1)CC(=O)Nc1ccc(Cl)c(C(F)(F)F)c1`, for which, under setting [1], the AC50 is 25.9 µM [falling, single point].
The same measure, in the same setting: for `CC1=NN(C(=O)c2ccc(Br)cc2)C(O)(c2ccccc2)C1` (stereo not drawn) the value was 15.8 µM [falling, partial curve, poor fit].
On the same count and under the same terms, for `Cc1ccc(/C=N/NC(=O)c2ccccc2OCc2cccc(Br)c2)o1` the value was 15.8 µM [falling, single point]; for `CCCNC(=O)CCNC(=O)c1ccc(C(C)(C)C)cc1`, 6.31 µM [rising, partial curve, poor fit].
Regarding `O=C1CC(Sc2nnnn2-c2ccccc2)C(=O)N1c1cccc(Cl)c1` (stereo not drawn), the AC50 is 18.4 µM [falling, single point] under setting [1] and 29.1 µM [rising, partial curve, poor fit] under setting [2].
For `Cc1noc(C)c1COc1ccc(CC(=O)NCc2ccccc2)cc1`, the concentration at half-maximal activity (AC50) by setting is: under setting [1], 31.6 µM [rising, single point]; under setting [2], 15.8 µM [falling, partial curve].
For the compound `CCOC(=O)c1sc(Nc2cccc(C)c2C)nc1C`, the AC50 under setting [1] is 6.31 µM [falling, partial curve, poor fit].
Turning to `CCCCCC1CC(CC(=O)Nc2ccc([N+](=O)[O-])cc2)OC1=O` (stereo not drawn), under setting [1], the AC50 was 25.1 µM [falling, single point].
In the case of `Cc1ccc(NC(=O)c2cc(-c3ccco3)on2)cc1`, the AC50 under setting [1] is 11.2 µM [falling, partial curve, poor fit].
Same read-out and setting: for `CO/N=C/c1ccc(Oc2ccc(C)cc2)c([N+](=O)[O-])c1` the value was 35.5 µM [rising, single point].
In the case of `COc1cc2nc(CCc3ccccc3)oc(=O)c2cc1OC`, the AC50 under setting [1] was 22.4 µM [falling, single point].
The same measure, in the same setting: in the case of `COc1ccc(-c2ccc3ccccc3n2)cc1` it was 0.447 µM [rising, full curve, poor fit].
As for `COc1ccc(Cl)cc1S(=O)(=O)N1CCN(C)CC1`, the concentration at half-maximal activity (AC50) under setting [1] is 1.46 µM [falling, partial curve, poor fit].
Same read-out and setting: for `CC12CCC(=O)N1C(C(=O)Nc1nc(-c3ccccc3Cl)cs1)CS2` (stereo not drawn) the value was 18.4 µM [falling, partial curve].
On the same count and under the same terms, for `Cc1ccc(C(=O)Nc2ccc3c(c2)CCC3)cc1` the value was 3.98 µM [rising, single point].
In the case of `COc1ccc(-c2nn(CCC(=O)O)cc2/C=C2\SC(N)=NC2=O)cc1OC`, under setting [2], the AC50 is 2.91 µM [rising, partial curve, poor fit].
`Cc1cccc(NC(=O)c2ccc([N+](=O)[O-])o2)c1`: the concentration at half-maximal activity (AC50) under setting [1] is 11.2 µM [falling, single point].
The same measure, in the same setting: for `CC(C)COc1ccc(C(=O)Nc2ccc(NC(=O)c3ccco3)c(Cl)c2)cc1` the value was 0.58 µM [falling, full curve]; for `CCOc1ccc(NC(=O)/C=C/c2ccccc2)c([N+](=O)[O-])c1`, 5.8 µM [rising, full curve].
Consider `COCCNC(=O)Cc1c(C)c2c(cc(C)c3c(C)coc32)oc1=O`, for which the concentration at half-maximal activity (AC50) under setting [1] was 3.98 µM [rising, partial curve, poor fit].
Turning to `Cn1c(=O)n(Cc2ccccc2Cl)c2ccccc21`, the concentration at half-maximal activity (AC50) was 7.94 µM [rising, partial curve, poor fit] under setting [1] and 10 µM [falling, partial curve, poor fit] under setting [2].
Regarding `COc1ccc(C(CNC(=O)c2ccc(C)c(S(=O)(=O)Nc3ccccc3OC)c2)N2CCCC2)cc1` (stereo not drawn), the concentration at half-maximal activity (AC50) under setting [1] is 8.91 µM [falling, partial curve].
For `Cc1cc(O)c(C(C)C)cc1NC1=NS(=O)(=O)c2ccccc21`, the concentration at half-maximal activity (AC50) under setting [1] is 0.58 µM [falling, partial curve, poor fit].
For `Cn1c(N)c(C(=O)COC(=O)CN2C(=O)c3ccccc3C2=O)c(=O)n(C)c1=O`, the AC50 under setting [1] is 3.66 µM [falling, partial curve, poor fit].
On the same count and under the same terms, in the case of `Oc1ccc(Cl)cc1C=Nc1ccc(Br)cc1` it was 0.282 µM [falling, full curve]; in that of `COc1ccc(CNC(=O)C(c2ccc(C)o2)N(Cc2cccs2)C(=O)Cc2cccs2)cc1` (stereo not drawn), 16.4 µM [falling, partial curve].
